Among all 320,000 compounds or so, about 740 (0.23%) were called active. Inconclusive results, whose numbers are uncertain, are shown with a selection of clear calls. The call rests on the fitted dose curve; in most records, active means well fitted activation curve with a large enough effect; inconclusive means small, poorly fitted or top-dose-only effect; inactive means no such curve, though single readings can be large or run the other way. A potency beside an inconclusive call is a rough fit, not a confirmed value.
Assay: qHTS Assay for Small Molecule Inhibitors of Mitochondrial Division or Activators of Mitochondrial Fusion; further: nearly all actives have a fitted effect of over 45% in size
Details: S. cerevisiae fusion-defective mutant growth rescue, CellTiterGlo 48 h; series mostly up to 46.1 µM
Outline: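 Read-out: ATP-based luminescence (CellTiterGlo, 10 min ambient) reporting growth of fusion-defective ts yeast after 48 hours at 37C on glycerol/ethanol YPEG medium in the presence of compound.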
Potency means the concentration at half of the fitted maximal effect.

Row | SMILES | Potency
1 | CCOc1ccc(-c2cccc(NC(=O)COc3ccc(Cl)cc3)c2)nn1 | inconclusive: 31.6 µM [activator, partial curve]
2 | O=c1c(-c2nc3ccccc3s2)cccn1Cc1ccc(Cl)c(Cl)c1 | inconclusive: 10 µM [activator, partial curve]
3 | CCSc1nnc(NC(=O)c2c(-c3ccccc3Cl)noc2C)s1 | inconclusive: 10 µM [activator, partial curve]
4 | C[N+](C)(C)CCCCCCCCCC[N+](C)(C)C | inconclusive: 20.6 µM [activator, single point]
5 | O=C(O)/C(=C/c1c(C(=O)O)[nH]c2cc(Cl)cc(Cl)c12)c1ccccc1 | inconclusive: 18.4 µM [activator, single point]
6 | COC(=O)c1ccc(C(c2c(C)[nH][nH]c2=O)c2c(C)[nH][nH]c2=O)cc1 | inactive
7 | COc1ccc2c(c1)c1ccc3c(c1n2C)C(=O)C=CC3=O | inactive
8 | COc1cc(NC(=S)NCCSc2ccc(C)cc2)cc(OC)c1 | inconclusive: 35.5 µM [activator, single point]
9 | Oc1ccc2ccccc2c1SSc1c(O)ccc2ccccc12 | inactive
10 | Nn1c(-c2cccs2)nc2sc3c(c2c1=O)CCCC3 | inconclusive: 15.8 µM [activator, partial curve]
11 | Cc1cc(C)c(NC(=O)/C(=C/c2ccccc2)c2ccccc2)c(C)c1 | inconclusive: 14.1 µM [activator, partial curve]
12 | Cc1nc(C(=O)N2CCc3c([nH]c4ccccc34)C2c2cc(F)ccc2F)cs1 (centres undefined) | inconclusive: 11.2 µM [activator, partial curve]
13 | CC#CCN1c2ccccc2[C@]23C[C@@H](C(=O)OC)N(C(=O)c4cc(C)oc4C)C2=NC(C(=O)OC)=C(C(=O)OC)[C@H]13 | inconclusive: 11.2 µM [activator, partial curve]
14 | COc1ccc(CCC(=O)O)c(O)c1 | inactive
15 | Cc1nc2ncnn2c(N2CCCC(C(=O)Nc3ccccc3Br)C2)c1C (centres undefined) | inconclusive: 20 µM [activator, single point]
16 | Cc1cccc(NC(=O)c2cccnc2)c1 | inactive
17 | CCOC(=O)C1(Cc2cccc(Cl)c2)CCCN(C(=O)c2cc(CC)on2)C1 (centres undefined) | inconclusive: 22.4 µM [activator, single point]
18 | CCn1c(CC(=O)Nc2ccc(F)cc2)nnc1SCC(=O)Nc1nnc(C)s1 | inconclusive: 5.62 µM [activator, partial curve]
19 | Cc1cc(N2CCOCC2)nc(SCc2c(Cl)cccc2Cl)n1 | inconclusive: 31.6 µM [activator, single point]
20 | O=C1C=C(c2cc3ccccc3s2)C[C@@H](c2ccc(F)cc2)C1 | inconclusive: 7.08 µM [activator, single point]
21 | Cc1ccc(-c2oc3ncnc(N)c3c2-c2ccc(C)cc2)cc1 | inactive
22 | Cn1cnnc1SCC(=O)NNC(=O)COc1ccc(Cl)cc1 | inconclusive: 8.91 µM [activator, partial curve]
23 | C=CCSc1nc2c(c(=O)[nH]c(=O)n2C)n1C(C)C | inactive
24 | O=C(Nc1nc(-c2ccccc2)cs1)C1CCCN(S(=O)(=O)c2ccccc2)C1 (centres undefined) | inactive
25 | CN(Cc1ccc(F)cc1)Cc1nc(-c2cnccn2)no1 | inactive

Looked up by compound from the entries so far (2):
Row | SMILES | Potency
9 | Oc1ccc2ccccc2c1SSc1c(O)ccc2ccccc12 | inactive
5 | O=C(O)/C(=C/c1c(C(=O)O)[nH]c2cc(Cl)cc(Cl)c12)c1ccccc1 | inconclusive: 18.4 µM [activator, single point]

The list goes on:

Row | SMILES | Potency
26 | Cn1nc(-c2ccc(N3CCCCC3)c(NC(=O)c3ccco3)c2)c2ccccc2c1=O | inconclusive: 15.8 µM [activator, single point]
27 | O=C(O)c1cccc(N2C(=O)c3cc([N+](=O)[O-])cc4cc([N+](=O)[O-])cc(c34)C2=O)c1 | inactive
28 | O=C(Nc1sc2c(c1C(=O)c1ccc(Cl)cc1)CCCC2)c1cccnc1 | inconclusive: 17.8 µM [activator, single point]
29 | c1ccc(-c2cc(-c3ccccc3)n3ncnc3n2)cc1 | inactive
30 | COc1ccccc1N1CCN(C(c2cccs2)C(C)NS(=O)(=O)c2ccccc2)CC1 (centres undefined) | inconclusive: 15.8 µM [activator, single point]
31 | CCC(=O)N1CCC(c2ccc(OC)cc2)=N1 | inconclusive: 5.62 µM [activator, single point]
32 | O=C(COC(=O)C12CC3CC(CC(C3)C1)C2)NCCCc1ccccc1 | inconclusive: 12.6 µM [activator, partial curve]
33 | OCC1OC(n2cnc3c(NC4CCCCC4)ncnc32)C(O)C1O (centres undefined) | inactive
34 | O=C(CSc1ccccc1C(=O)NCc1ccccc1)NC12CC3CC(CC(C3)C1)C2 | inconclusive: 17.8 µM [activator, single point]
35 | O=S(=O)(CCN1CCN(C(c2ccccc2)c2ccccc2)CC1)C(F)(F)F | inactive
36 | CN(C)S(=O)(=O)c1cccc(NC(=O)c2cncc(Br)c2)c1 | inactive
37 | COc1cc(NC(=O)Nc2cccc(Cl)c2)c(OC)cc1NC(=O)CN1CCCCC1 | inconclusive: 25.1 µM [activator, single point]
38 | COc1ccc(S(=O)(=O)N(CC(=O)N2CCN(c3ccccc3OC)CC2)c2ccccc2)cc1 | inconclusive: 35.5 µM [activator, single point]
39 | N#C/C(=C\c1ccncc1)c1ccccn1 | inactive
40 | CCN1C/C(=C/c2ccc(OC)c(O)c2)C(=O)/C(=C/c2ccc(OC)c(O)c2)C1 | inconclusive: 3.55 µM [activator, partial curve]
41 | O=C(NCC(c1ccco1)N1CCc2ccccc2C1)C(=O)Nc1ccccc1 (centres undefined) | inconclusive: 35.5 µM [activator, partial curve, poor fit]
42 | CN(Cc1ccco1)c1ncnc2ccc(-c3ccccc3Cl)cc12 | inconclusive: 20 µM [activator, single point]
43 | CCOc1ccccc1C(=O)Nc1ccccc1-c1ccccc1 | inconclusive: 17.8 µM [activator, single point]
44 | CCOc1ccc(Br)cc1C1=CC(=O)C[C@H](c2ccc(OC)cc2)C1 | inconclusive: 15.8 µM [activator, single point]
45 | N#Cc1ccccc1-c1ccccc1C(=O)N1CCCCC1 | inactive
46 | Cc1ccc(-c2nnc(N3CCN(C(=O)COc4cccc(C)c4)CC3)c3ccccc23)cc1 | active: 12.6 µM
47 | O=[N+]([O-])c1cccc(/C=N/Nc2nccnc2Cl)c1 | inactive
48 | Cc1ccc(-c2nc(CSCC(=O)N3CCN(C(=O)c4ccco4)CC3)c(C)o2)cc1 | inactive
49 | CN(C)c1cccc(NC(=O)c2ccco2)c1 | inconclusive: 12.6 µM [activator, partial curve]
50 | O=C(Nc1ccc(F)cc1F)c1cc2ncc(CCCl)cn2n1 | inconclusive: 5.62 µM [activator, full curve, poor fit]

Reformatted: entries from further up.
Row	SMILES	Potency
5	O=C(O)/C(=C/c1c(C(=O)O)[nH]c2cc(Cl)cc(Cl)c12)c1ccccc1	inconclusive: 18.4 µM [activator, single point]
10	Nn1c(-c2cccs2)nc2sc3c(c2c1=O)CCCC3	inconclusive: 15.8 µM [activator, partial curve]
14	COc1ccc(CCC(=O)O)c(O)c1	inactive
16	Cc1cccc(NC(=O)c2cccnc2)c1	inactive
25	CN(Cc1ccc(F)cc1)Cc1nc(-c2cnccn2)no1	inactive
28	O=C(Nc1sc2c(c1C(=O)c1ccc(Cl)cc1)CCCC2)c1cccnc1	inconclusive: 17.8 µM [activator, single point]
31	CCC(=O)N1CCC(c2ccc(OC)cc2)=N1	inconclusive: 5.62 µM [activator, single point]
35	O=S(=O)(CCN1CCN(C(c2ccccc2)c2ccccc2)CC1)C(F)(F)F	inactive
37	COc1cc(NC(=O)Nc2cccc(Cl)c2)c(OC)cc1NC(=O)CN1CCCCC1	inconclusive: 25.1 µM [activator, single point]
42	CN(Cc1ccco1)c1ncnc2ccc(-c3ccccc3Cl)cc12	inconclusive: 20 µM [activator, single point]
43	CCOc1ccccc1C(=O)Nc1ccccc1-c1ccccc1	inconclusive: 17.8 µM [activator, single point]
44	CCOc1ccc(Br)cc1C1=CC(=O)C[C@H](c2ccc(OC)cc2)C1	inconclusive: 15.8 µM [activator, single point]
47	O=[N+]([O-])c1cccc(/C=N/Nc2nccnc2Cl)c1	inactive

Next results follow.

Row | SMILES | Potency
51 | COc1ccc(OC)c(/C=C2\SC(N3CCCC(C)C3)=NC2=O)c1 (centres undefined) | active: 12.6 µM
52 | CCNc1ccc(C(=O)Nc2ccc3nc(C)sc3c2)cc1[N+](=O)[O-] | active: 35.5 µM
53 | CCCNC(=O)NC(=O)CSc1cccc(C(F)(F)F)c1 | inactive
54 | COc1ccc(NC(=O)CN2CCN(c3nc(-c4cccc(OC)c4)cs3)CC2)cc1 | inconclusive: 12.6 µM [activator, partial curve]
55 | CC1CN(CCOc2ccccc2-c2ccccc2)CC(C)O1 (centres undefined) | inconclusive: 22.4 µM [activator, single point]
56 | CNC(=O)COC(=O)/C=C/c1cn(-c2ccccc2)nc1-c1ccc2c(c1)OCCO2 | inconclusive: 3.16 µM [activator, partial curve]
57 | CC(CCc1ccccc1)NC(=O)CNC(=S)N(Cc1cccs1)C1CCCC1 (centres undefined) | inactive
58 | Cc1cccc(NC(=O)c2nc[nH]c2C(=O)N[C@@H](CC(C)C)C(=O)OC(C)(C)C)c1 | inconclusive: 12.6 µM [activator, partial curve]
59 | CCOC(=O)Nc1ccc(C(=O)/C=C/c2ccccc2)cc1 | inactive
60 | CSc1sc2ccccc2[n+]1CCCS(=O)(=O)[O-] | inactive
61 | COc1ccc(CN(C)CC(=O)Nc2cc3oc4ccccc4c3cc2OC)c(OC)c1 | inconclusive: 11.2 µM [activator, partial curve]
62 | CC(=O)O[C@]1(C(C)=O)CC[C@H]2[C@@H]3C=C(Cl)C4=CC(=O)[C@@H]5C[C@@H]5[C@]4(C)[C@H]3CC[C@@]21C | active: 20.6 µM
63 | O=c1oc2ccccc2n1CSc1nc2ccccc2s1 | inconclusive: 12.6 µM [activator, partial curve]
64 | Cc1cccc(NC(=O)CSc2nnc(-c3ccccc3)n2N)c1 | inactive
65 | COC(=O)c1sccc1NC(=O)CCC1CCCCC1 | inactive
66 | Cc1cc2occ(CC(=O)NCc3cccs3)c2cc1C(C)C | active: 15.8 µM
67 | FC(F)(F)c1ccccc1NC(=S)Nc1cccc(Cl)c1 | inactive
68 | CCOC(=O)CSc1nnc(COc2ccc3ccccc3c2)o1 | inactive
69 | O=C1/C(=C\c2cccc([N+](=O)[O-])c2O)SC(=S)N1Cc1ccccc1 | inactive
70 | CC(C)C(c1nnnn1C1CCCC1)N1CCN(c2ccccc2F)CC1 (centres undefined) | inconclusive: 7.08 µM [activator, full curve, poor fit]
71 | O=C1S/C(=C/c2ccccc2)C(=O)N1CC(O)Cn1c2ccccc2c2ccccc21 (centres undefined) | inconclusive: 7.94 µM [activator, partial curve]
72 | CNC(=S)N/N=C/c1cn(CCOc2ccc(OC)cc2)c2ccccc12 | inconclusive: 17.8 µM [activator, single point]
73 | Cc1c(CCC(=O)N2CCC[C@H]2C(=O)O)c(=O)oc2c(C)c3oc4c(c3cc12)CCCC4 | inactive
74 | CC(C)N=C(NS(=O)(=O)c1ccccc1)C(Cl)(Cl)Cl | inconclusive: 35.5 µM [activator, single point]
